Source: PubChem BioAssay (NCATS)
Inconclusive results, whose numbers are uncertain, are shown with a selection of clear calls. The source made the active and inactive calls. Calls follow the shape of the dose curve; as a rule, active = well fitted curve in either direction with a large enough effect (not every such curve was filed as active); inconclusive = small, poorly fitted or top-dose-only effect, or another doubt; inactive = flat fitted curve, though single readings scatter.

assay: Stat Signaling Pathway (AID 446); details: ME-180 SIE beta-lactamase reporter, IL-6 stimulated, 5 h; at 7.69 µM (top of the series) unless noted;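 also: ME-180 cervical cancer cells given 40 pM IL-6 alongside compound; SIE-controlled beta-lactamase reporter measured as 460/530 nm FRET emission ratio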
Outline: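 ME-180 cells carrying a SIE-driven beta-lactamase reporter are stimulated with 40 pM IL-6 for 5 h at 37C in the presence of compound. The 460/530 nm FRET substrate ratio is read after 2.5 h at RT. Data are normalised to 300 pM IL-6 and to 125 nM JAK inhibitor controls.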
% is scaled to controls: 0 for no effect and ±100 for the full control effect.

Row | SMILES | activity, negative = inhibition
1 | CCC(=O)OCN1C(=O)C=CC1=O | inconclusive: -64.6% [inhibitor]
2 | NC[C@](O)(CS(=O)(=O)O)c1ccc(Cl)cc1 | inconclusive: -52.9% [inhibitor] [at 38 µM]
3 | O=C(O)c1ccncc1.O=C(O)c1ccncc1.[Cl][Pt]([Cl])([Cl])[Cl] | inconclusive: -37.4% [inhibitor]
4 | COCCn1c(=O)c(-c2ccc(OC)cc2)nc2cnc(Nc3ccccc3)nc21 | inconclusive: 32.8% [activator]
5 | Cn1cc(-c2nc3cnc(Oc4cccc(Cl)c4)nc3n(CCC#N)c2=O)c2ccccc21 | inconclusive: 66.1% [activator]
6 | COc1ccc(Oc2ncc3ncc(=O)n(CCC#N)c3n2)cc1 | inactive: -8.02%
7 | COc1cccc(Cn2c(=O)c(C)nc3cnc(Oc4ccccc4)nc32)c1 | inactive: -2.47%
8 | O=C(O)/C=C\c1c2ccc(=O)c(O)c-2oc2c(O)c(O)ccc12 | inconclusive: -82.5% [inhibitor]
9 | Cc1ccc(S(=O)(=O)N[C@H](CN)C(=O)O)cc1 | inactive: 8.31%
10 | O=C(O)[C@H](Cc1ccccc1)N1C(=O)c2ccccc2C1=O | inactive: -2.52%
11 | O=[N+]([O-])c1ccc(CS(=O)Cc2ccccc2)cc1 (centres undefined) | inconclusive: 79.6% [activator]
12 | Nc1nc(-c2cccs2)cs1 | inactive: 5.4%
13 | COc1ncc2nc(CCc3ccccc3)c(=O)n(Cc3ccc(F)cc3)c2n1 | inactive: 2.49%
14 | C[C@]1(OC(=O)/C=C\c2ccccc2)C[C@@H](O)[C@@]2(O)C=CO[C@@H](O[C@H]3O[C@@H](CO)[C@@H](O)[C@@H](O)[C@@H]3O)[C@H]21 | inactive: -4.88% [at 17.2 µM]

3 of these compounds, set out differently:

| Row | SMILES | activity, negative = inhibition |
| --- | --- | --- |
| 1 | CCC(=O)OCN1C(=O)C=CC1=O | inconclusive: -64.6% [inhibitor] |
| 6 | COc1ccc(Oc2ncc3ncc(=O)n(CCC#N)c3n2)cc1 | inactive: -8.02% |
| 10 | O=C(O)[C@H](Cc1ccccc1)N1C(=O)c2ccccc2C1=O | inactive: -2.52% |
